Reference: PMC7467916
Results are given in words; binding and its absence hold for the method and conditions named. In cells and extracts the contact can be indirect. Some results given as binding are weak or reduced against the parent protein; the word gives no strength.

Tests used:
[1] = biological target: NMDA receptor subunit GluN2A (rat (endogenous in primary hippocampal neurons)) (UniProt Q00959); test: proximity ligation; primary rat hippocampal neurons fixed in cold 10% trichloroacetic acid, permeabilised in 0.1% Triton X-100; mouse antibodies against Na,K-ATPase α1 (a6f) or α3 with rabbit antibodies against GluN2A or GluN2B; Duolink In Situ Red Kit Mouse/Rabbit; signal when the probes are within about 40 nm
[2] = biological target: NMDA receptor subunit GluN2B (rat (endogenous in primary hippocampal neurons)) (UniProt Q00960); test: as above

binding [1]: binds | binding [2]: binds
Substance: Na,K-ATPase α3 subunit (from UniProt P06687 1-1013)
